Drawing on article PMC11253611, “The chaperone PrsA2 regulates the secretion, stability, and folding of listeriolysin O during Listeria monocytogenes infection” (mBio, 2024), this text covers binding for 1 substance.

Protein sequences, listed by entry. Tags and fused reporters are not part of them. Residues count along the entry.
UniProt P13128, residues 25-529: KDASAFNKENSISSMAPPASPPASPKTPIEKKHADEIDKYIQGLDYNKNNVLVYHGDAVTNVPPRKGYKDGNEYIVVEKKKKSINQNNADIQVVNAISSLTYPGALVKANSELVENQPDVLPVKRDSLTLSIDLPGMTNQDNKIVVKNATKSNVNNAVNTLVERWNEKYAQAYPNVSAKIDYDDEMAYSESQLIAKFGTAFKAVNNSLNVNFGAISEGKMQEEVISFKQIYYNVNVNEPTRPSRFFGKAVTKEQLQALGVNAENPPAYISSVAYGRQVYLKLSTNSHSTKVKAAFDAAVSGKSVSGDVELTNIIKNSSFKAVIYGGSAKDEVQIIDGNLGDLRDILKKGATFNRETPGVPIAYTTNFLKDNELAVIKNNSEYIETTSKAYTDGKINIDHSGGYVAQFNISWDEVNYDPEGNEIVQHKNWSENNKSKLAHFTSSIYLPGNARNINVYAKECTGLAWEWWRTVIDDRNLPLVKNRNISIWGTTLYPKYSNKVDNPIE

No constants are given. Whether binding was seen depends on the method and setting. Some binding calls cover weakened binding; strength is not graded here.

In this experiment the target is recombinant listeriolysin O (without the signal sequence, 25-529) (Listeria monocytogenes 10403S) (UniProt P13128). Nature of the experiment: dynamic light scattering; recombinant LLO at pH 5.5 and pH 6.5, 37°C, over 15 min; both purified.

For the substance “recombinant listeriolysin O (without the signal sequence, 25-529) (from UniProt P13128 25-529)”, the binding entry was “binds”.
